Data taken from patent US20110052677A1 (RESEARCH DEVELOPMENT FOUNDATION, published 2011).
No constants are given. Whether binding was seen depends on the method and setting. In cells and extracts the contact can be indirect. Some binding calls cover weakened binding; strength is not graded here. Tags and fused reporters may be left off the sequences shown.

Molecular target: T1, vascular urokinase-type plasminogen activator receptor (uPAR) of tEnd1.V^high cells (mouse) (UniProt P35456)
T1 sequence (looked up): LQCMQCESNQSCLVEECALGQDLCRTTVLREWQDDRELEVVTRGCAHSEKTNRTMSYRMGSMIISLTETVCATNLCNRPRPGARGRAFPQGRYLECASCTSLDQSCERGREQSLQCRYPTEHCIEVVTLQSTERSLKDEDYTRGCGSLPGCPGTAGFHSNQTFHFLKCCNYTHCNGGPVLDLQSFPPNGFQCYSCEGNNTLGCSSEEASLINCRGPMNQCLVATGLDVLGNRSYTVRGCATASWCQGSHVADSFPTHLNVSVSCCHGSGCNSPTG
Assay: pull-down / co-immunoprecipitation with Western blot, tEnd1.V^high cells

binding: binds
B1: recombinant mouse SRPX2-FLAG (ligand, UniProt Q8R054 26-468, looked up, not shown: small tags and cut ends)
chain: WYAGSGYSPDESYNEVYAEEVPAARARALDYRVPRWCYTLNIQDGEATCYSPRGGNYHSSLGTRCELSCDRGFRLIGRKSVQCLPSRRWSGTAYCRQIRCHTLPFITSGTYTCTNGMLLDSRCDYSCSSGYHLEGDRSRICMEDGRWSGGEPVCVDIDPPKIRCPHSREKMAEPEKLTARVYWDPPLVKDSADGTITRVTLRGPEPGSHFPEGEHVIRYTAYDRAYNRASCKFIVKVQVRRCPILKPPQHGYLTCSSAGDNYGAICEYHCDGGYERQGTPSRVCQSSRQWSGTPPVCTPMKINVNVNSAAGLLDQFYEKQRLLIVSAPDPSNRYYKMQISMLQQSTCGLDLRHVTIIELVGQPPQEVGRIREQQLSAGIIEELRQFQRLTRSYFNMVLIDKQGIDRERYMEPVTPEEIFTFIDDYLLSNEELARRVEQRDLCE
